Publication PMC5893762
No constants are given. Whether binding was seen depends on the method and setting. In cells and extracts the contact can be indirect. Binding calls can cover weak binding; strength is not graded here. For some assays here: Sequences can lack the tags named with a protein.

Columns and labels:
[1] = target: HA-MGA_0676 (expressed in HEK293T cells) (Mycoplasma gallisepticum (strain BJ44T)); assay: co-IP; HEK293T cells co-transfected with HA and Myc plasmids, 24 h; non-denaturing lysate; IP with anti-HA antibody and protein A/G agarose; blot with anti-HA or anti-Myc
[2] = target: M. gallisepticum MGA_0676 (native, from infecting bacteria) (Mycoplasma gallisepticum (strain BJ44T)); assay: co-IP; DF-1 cells infected with M. gallisepticum (MOI = 10) for 36 h or PBS; IP with anti-MGA_0676 antibody; blot with anti-NAE
[3] = target: HA-MGA_0676 (expressed in DF-1 cells) (Mycoplasma gallisepticum (strain BJ44T)); assay: co-IP; DF-1 cells transfected with pCMV-HA-MGA_0676 or empty vector, 24 h; IP with anti-HA antibody; blot with anti-NAE (endogenous NAE)
[4] = target: HA-MGA_0676 (expressed in DF-1 cells) (Mycoplasma gallisepticum (strain BJ44T)); assay: co-IP; DF-1 cells co-transfected with HA and Myc plasmids, 24 h; non-denaturing lysate; IP with anti-HA antibody; blot with anti-HA or anti-Myc

B1: Myc-NAE (NEDD8-activating enzyme E1 regulatory subunit, expressed in HEK293T cells) (protein, UniProt Q5ZIE6 1-535)
chain: MAQPGRASLKEQRYDRQLRLWGDHGQEALESAHVCVINATATGTEILKNLVLPGIGSFTIVDGNRVSGEDVGNNFFLQKSHIGQSRAQSATELLQELNNDVSGNFVEESPETLLDNDPSFFNRFNLVVATQLSESTVLRLAELLWNSNIPLLICRTYGLVGYMRIIIKEHPVVESHPDNALEDLRLDKQFPELTEHIQSYDLDHMDKKDHSHTPWIVIVAKYLTKWFNEKSDQLPKSYKEKEAFRQLIRQGILKNENGTPEDEENFEEAIKNVNTALNTTKIPRCIEEIFNDDCCVNLTEQSPSFWILVRAVKEFVANEGQGCLPVRGTIPDMIADSSKFIKLQNVYREKAKRDIAAVGNHAAKLLQSLGKAPESISERELKLLCSNSAFLRVVRCRSLSEEYGLNTFNKDEIISNMDNPDSEVVLYLMLRAVDRFYKQHGRYPGVYNYQVEDDIGKLKSCLTSFLQEHGLSVLVKDDYVHEFCRYGAAEPHAIAAFMGGAAAQEIIKVITGQFVIFNNTYIYSGMSQTSATFQL
[1]
  binding: binds

B2: endogenous NAE (NEDD8-activating enzyme E1 regulatory subunit) of DF-1 cells (protein, UniProt Q5ZIE6 1-535)
chain: MAQPGRASLKEQRYDRQLRLWGDHGQEALESAHVCVINATATGTEILKNLVLPGIGSFTIVDGNRVSGEDVGNNFFLQKSHIGQSRAQSATELLQELNNDVSGNFVEESPETLLDNDPSFFNRFNLVVATQLSESTVLRLAELLWNSNIPLLICRTYGLVGYMRIIIKEHPVVESHPDNALEDLRLDKQFPELTEHIQSYDLDHMDKKDHSHTPWIVIVAKYLTKWFNEKSDQLPKSYKEKEAFRQLIRQGILKNENGTPEDEENFEEAIKNVNTALNTTKIPRCIEEIFNDDCCVNLTEQSPSFWILVRAVKEFVANEGQGCLPVRGTIPDMIADSSKFIKLQNVYREKAKRDIAAVGNHAAKLLQSLGKAPESISERELKLLCSNSAFLRVVRCRSLSEEYGLNTFNKDEIISNMDNPDSEVVLYLMLRAVDRFYKQHGRYPGVYNYQVEDDIGKLKSCLTSFLQEHGLSVLVKDDYVHEFCRYGAAEPHAIAAFMGGAAAQEIIKVITGQFVIFNNTYIYSGMSQTSATFQL
[2]
  binding: binds
[3]
  binding: binds

B3: Myc-NAE (NEDD8-activating enzyme E1 regulatory subunit, expressed in DF-1 cells) (protein, UniProt Q5ZIE6 1-535)
chain: MAQPGRASLKEQRYDRQLRLWGDHGQEALESAHVCVINATATGTEILKNLVLPGIGSFTIVDGNRVSGEDVGNNFFLQKSHIGQSRAQSATELLQELNNDVSGNFVEESPETLLDNDPSFFNRFNLVVATQLSESTVLRLAELLWNSNIPLLICRTYGLVGYMRIIIKEHPVVESHPDNALEDLRLDKQFPELTEHIQSYDLDHMDKKDHSHTPWIVIVAKYLTKWFNEKSDQLPKSYKEKEAFRQLIRQGILKNENGTPEDEENFEEAIKNVNTALNTTKIPRCIEEIFNDDCCVNLTEQSPSFWILVRAVKEFVANEGQGCLPVRGTIPDMIADSSKFIKLQNVYREKAKRDIAAVGNHAAKLLQSLGKAPESISERELKLLCSNSAFLRVVRCRSLSEEYGLNTFNKDEIISNMDNPDSEVVLYLMLRAVDRFYKQHGRYPGVYNYQVEDDIGKLKSCLTSFLQEHGLSVLVKDDYVHEFCRYGAAEPHAIAAFMGGAAAQEIIKVITGQFVIFNNTYIYSGMSQTSATFQL
[4]
  binding: binds

B4: Myc-NAE^ΔThif (protein, UniProt Q5ZIE6)
chain: MAQPGRASLKEQRYDRQLRLWGDHGQEAIKEHPVVESHPDNALEDLRLDKQFPELTEHIQSYDLDHMDKKDHSHTPWIVIVAKYLTKWFNEKSDQLPKSYKEKEAFRQLIRQGILKNENGTPEDEENFEEAIKNVNTALNTTKIPRCIEEIFNDDCCVNLTEQSPSFWILVRAVKEFVANEGQGCLPVRGTIPDMIADSSKFIKLQNVYREKAKRDIAAVGNHAAKLLQSLGKAPESISERELKLLCSNSAFLRVVRCRSLSEEYGLNTFNKDEIISNMDNPDSEVVLYLMLRAVDRFYKQHGRYPGVYNYQVEDDIGKLKSCLTSFLQEHGLSVLVKDDYVHEFCRYGAAEPHAIAAFMGGAAAQEIIKVITGQFVIFNNTYIYSGMSQTSATFQL
[1]
  binding: no binding
